The other results are listed elsewhere or left out.
Assays:
Experiment in all cases: log2 fold change, soluble protein after heating vs DMSO (PISA); higher = thermal stabilisation; K562 lysate, 10 uM; active = over 0.2 and 3.5 SD of the protein, either way, in both replicates (recomputed)
[1] = compound: Cc1cn(-c2cc(NC(=O)c3ccc(C)c(Nc4nccc(-c5cccnc5)n4)c3)cc(C(F)(F)F)c2)cn1 [nilotinib]
How it was run: (§1)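 Following dounce homogenisation of K562 pellets in PBS pH 7.4 with 1 mM MgCl2, crude extract at 1 mg/mL protein was incubated for 30 min with 10 μM compound. Aliquots were then heated for 3 min over 48°C-58°C and pooled, NP-40 was added to 0.5% at 4°C, and soluble protein was recovered as the supernatant at 21,000xg for 90 min. Channel-sum-equalised TMTpro 16plex LC-MS/MS quantified this protein. Each value, from duplicates, is a log-two fold change in thermal stability relative to solvent controls.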

Chains of the proteins cited; added tags and fusions are not shown. Lines headed by an entry give the natural chain unless they say otherwise; changes in a name come on top.
UniProt P32189: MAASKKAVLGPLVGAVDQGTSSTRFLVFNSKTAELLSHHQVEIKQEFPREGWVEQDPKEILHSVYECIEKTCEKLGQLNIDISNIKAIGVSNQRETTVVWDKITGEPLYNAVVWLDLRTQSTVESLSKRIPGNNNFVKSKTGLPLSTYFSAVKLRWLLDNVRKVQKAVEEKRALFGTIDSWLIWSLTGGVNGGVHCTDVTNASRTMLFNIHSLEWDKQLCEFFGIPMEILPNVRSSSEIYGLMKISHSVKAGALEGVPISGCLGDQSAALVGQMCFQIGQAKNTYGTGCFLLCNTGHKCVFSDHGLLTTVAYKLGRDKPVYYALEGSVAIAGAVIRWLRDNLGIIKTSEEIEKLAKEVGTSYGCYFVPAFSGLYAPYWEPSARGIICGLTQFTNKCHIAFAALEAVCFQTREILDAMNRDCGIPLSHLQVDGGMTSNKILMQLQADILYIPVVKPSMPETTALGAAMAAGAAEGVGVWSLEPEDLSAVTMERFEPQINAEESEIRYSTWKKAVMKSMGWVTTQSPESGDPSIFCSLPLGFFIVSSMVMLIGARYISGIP
UniProt Q9UJJ9: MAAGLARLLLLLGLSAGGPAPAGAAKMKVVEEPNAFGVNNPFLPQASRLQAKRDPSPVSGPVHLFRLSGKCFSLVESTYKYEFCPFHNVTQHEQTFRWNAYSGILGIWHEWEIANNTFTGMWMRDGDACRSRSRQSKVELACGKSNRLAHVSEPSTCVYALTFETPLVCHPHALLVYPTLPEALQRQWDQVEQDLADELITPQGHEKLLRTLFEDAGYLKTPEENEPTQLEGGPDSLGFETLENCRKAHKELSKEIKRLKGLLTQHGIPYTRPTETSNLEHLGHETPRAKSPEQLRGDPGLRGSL
UniProt Q13439: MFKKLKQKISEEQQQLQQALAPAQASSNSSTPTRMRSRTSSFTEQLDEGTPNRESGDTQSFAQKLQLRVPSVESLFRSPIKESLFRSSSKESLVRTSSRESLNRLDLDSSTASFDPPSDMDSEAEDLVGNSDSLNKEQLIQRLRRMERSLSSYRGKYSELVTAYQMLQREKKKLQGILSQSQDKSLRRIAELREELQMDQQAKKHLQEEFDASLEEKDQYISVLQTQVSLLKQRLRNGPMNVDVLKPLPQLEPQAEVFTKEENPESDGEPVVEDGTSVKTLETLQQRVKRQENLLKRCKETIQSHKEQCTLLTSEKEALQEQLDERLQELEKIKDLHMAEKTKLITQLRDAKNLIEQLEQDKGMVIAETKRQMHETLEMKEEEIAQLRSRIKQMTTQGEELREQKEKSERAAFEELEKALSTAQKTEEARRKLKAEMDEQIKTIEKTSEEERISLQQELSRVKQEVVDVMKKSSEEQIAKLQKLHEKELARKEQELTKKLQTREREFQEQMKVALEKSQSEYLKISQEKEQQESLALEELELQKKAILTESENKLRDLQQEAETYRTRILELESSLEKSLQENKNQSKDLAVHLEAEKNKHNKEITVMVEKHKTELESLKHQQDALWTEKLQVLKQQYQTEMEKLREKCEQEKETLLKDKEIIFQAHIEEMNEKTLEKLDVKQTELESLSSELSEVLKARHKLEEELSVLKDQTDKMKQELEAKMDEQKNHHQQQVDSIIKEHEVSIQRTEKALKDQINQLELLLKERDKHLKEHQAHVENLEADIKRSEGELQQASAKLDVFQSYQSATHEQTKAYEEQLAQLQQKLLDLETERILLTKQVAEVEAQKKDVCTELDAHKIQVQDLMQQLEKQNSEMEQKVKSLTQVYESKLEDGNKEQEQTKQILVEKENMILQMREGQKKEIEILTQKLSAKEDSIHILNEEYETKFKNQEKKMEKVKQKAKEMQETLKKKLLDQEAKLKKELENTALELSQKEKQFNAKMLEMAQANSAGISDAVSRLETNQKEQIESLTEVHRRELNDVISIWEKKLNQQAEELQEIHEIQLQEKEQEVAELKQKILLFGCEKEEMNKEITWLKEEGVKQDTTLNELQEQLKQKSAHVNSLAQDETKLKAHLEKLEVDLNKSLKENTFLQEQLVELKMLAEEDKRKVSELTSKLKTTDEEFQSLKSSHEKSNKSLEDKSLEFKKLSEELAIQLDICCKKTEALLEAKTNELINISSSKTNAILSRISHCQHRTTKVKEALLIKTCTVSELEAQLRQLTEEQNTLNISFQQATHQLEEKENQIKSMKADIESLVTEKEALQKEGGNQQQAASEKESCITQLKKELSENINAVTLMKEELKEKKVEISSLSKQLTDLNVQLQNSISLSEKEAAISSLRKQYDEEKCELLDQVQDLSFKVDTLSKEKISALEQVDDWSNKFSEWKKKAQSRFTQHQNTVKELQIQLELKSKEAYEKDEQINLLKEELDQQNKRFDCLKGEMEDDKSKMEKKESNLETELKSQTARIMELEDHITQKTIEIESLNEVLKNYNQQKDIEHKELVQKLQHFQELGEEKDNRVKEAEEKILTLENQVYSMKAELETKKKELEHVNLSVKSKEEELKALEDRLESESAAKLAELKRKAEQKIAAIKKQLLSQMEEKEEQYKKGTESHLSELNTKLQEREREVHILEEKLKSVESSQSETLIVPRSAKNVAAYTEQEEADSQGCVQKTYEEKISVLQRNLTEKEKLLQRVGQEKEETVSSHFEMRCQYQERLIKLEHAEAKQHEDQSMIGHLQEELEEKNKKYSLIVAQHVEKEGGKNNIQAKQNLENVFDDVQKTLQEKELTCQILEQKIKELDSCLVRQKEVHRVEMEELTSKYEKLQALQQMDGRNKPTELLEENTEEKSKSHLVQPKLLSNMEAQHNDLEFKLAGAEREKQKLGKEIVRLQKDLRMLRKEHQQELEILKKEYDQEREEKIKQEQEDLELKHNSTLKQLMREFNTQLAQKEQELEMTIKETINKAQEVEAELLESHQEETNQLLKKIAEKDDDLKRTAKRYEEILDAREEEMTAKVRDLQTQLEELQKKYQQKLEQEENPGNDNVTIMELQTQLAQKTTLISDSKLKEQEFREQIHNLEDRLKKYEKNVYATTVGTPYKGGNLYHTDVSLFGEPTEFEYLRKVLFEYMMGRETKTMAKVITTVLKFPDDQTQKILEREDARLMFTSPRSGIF
UniProt Q9Y692: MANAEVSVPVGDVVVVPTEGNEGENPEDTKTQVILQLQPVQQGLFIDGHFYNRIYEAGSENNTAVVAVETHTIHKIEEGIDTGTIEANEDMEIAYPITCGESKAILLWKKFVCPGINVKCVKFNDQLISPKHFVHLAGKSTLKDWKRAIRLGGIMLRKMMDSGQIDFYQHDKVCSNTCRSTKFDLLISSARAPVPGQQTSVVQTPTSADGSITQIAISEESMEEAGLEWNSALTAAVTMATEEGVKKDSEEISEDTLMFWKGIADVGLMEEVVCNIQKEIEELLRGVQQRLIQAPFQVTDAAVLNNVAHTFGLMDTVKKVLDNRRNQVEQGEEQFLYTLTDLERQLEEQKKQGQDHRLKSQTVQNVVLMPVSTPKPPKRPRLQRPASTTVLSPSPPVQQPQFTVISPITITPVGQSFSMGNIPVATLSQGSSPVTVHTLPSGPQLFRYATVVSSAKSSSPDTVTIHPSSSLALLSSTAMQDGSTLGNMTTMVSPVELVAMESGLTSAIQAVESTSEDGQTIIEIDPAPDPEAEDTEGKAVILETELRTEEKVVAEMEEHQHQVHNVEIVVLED
UniProt Q92896: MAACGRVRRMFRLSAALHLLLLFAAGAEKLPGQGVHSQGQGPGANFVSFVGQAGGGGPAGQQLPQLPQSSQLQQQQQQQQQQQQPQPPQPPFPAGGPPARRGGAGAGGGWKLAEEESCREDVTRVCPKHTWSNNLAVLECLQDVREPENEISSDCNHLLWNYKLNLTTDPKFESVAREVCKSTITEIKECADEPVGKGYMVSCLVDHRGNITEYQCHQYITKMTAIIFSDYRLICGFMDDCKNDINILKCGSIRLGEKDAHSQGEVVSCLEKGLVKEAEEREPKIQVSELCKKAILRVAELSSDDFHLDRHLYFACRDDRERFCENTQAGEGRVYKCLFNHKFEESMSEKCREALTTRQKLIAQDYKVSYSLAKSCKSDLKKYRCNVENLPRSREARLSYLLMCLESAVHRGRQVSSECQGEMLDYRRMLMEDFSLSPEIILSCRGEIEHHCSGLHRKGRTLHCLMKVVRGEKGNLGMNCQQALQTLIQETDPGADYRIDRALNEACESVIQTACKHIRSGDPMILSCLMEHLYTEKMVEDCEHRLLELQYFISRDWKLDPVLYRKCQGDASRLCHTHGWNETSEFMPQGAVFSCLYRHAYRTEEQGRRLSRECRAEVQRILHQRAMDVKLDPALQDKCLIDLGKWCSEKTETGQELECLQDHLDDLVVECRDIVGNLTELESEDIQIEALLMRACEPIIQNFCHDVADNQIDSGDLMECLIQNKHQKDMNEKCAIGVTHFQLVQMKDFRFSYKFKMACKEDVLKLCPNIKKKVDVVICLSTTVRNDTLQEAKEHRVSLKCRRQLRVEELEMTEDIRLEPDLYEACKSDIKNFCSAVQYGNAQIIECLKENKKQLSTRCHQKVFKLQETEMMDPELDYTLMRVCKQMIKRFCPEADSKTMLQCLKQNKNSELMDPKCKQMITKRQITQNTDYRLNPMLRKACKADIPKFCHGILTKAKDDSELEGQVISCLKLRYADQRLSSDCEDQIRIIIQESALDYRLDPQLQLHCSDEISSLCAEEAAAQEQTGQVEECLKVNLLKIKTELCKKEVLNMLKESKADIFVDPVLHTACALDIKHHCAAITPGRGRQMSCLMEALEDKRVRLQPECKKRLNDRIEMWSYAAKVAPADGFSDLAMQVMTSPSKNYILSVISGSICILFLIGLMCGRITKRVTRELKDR
UniProt Q9HCN4, whole entry, looked up: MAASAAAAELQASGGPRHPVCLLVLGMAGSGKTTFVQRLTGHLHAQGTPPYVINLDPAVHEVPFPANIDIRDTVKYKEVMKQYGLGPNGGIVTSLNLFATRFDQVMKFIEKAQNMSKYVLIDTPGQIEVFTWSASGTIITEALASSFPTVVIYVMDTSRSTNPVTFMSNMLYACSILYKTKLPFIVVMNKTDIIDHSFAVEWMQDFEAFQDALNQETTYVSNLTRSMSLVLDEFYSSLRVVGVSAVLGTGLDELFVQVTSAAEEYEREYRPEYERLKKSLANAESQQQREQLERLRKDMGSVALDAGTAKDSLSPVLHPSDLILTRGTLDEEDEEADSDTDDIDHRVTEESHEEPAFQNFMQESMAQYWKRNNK
UniProt Q5VW38: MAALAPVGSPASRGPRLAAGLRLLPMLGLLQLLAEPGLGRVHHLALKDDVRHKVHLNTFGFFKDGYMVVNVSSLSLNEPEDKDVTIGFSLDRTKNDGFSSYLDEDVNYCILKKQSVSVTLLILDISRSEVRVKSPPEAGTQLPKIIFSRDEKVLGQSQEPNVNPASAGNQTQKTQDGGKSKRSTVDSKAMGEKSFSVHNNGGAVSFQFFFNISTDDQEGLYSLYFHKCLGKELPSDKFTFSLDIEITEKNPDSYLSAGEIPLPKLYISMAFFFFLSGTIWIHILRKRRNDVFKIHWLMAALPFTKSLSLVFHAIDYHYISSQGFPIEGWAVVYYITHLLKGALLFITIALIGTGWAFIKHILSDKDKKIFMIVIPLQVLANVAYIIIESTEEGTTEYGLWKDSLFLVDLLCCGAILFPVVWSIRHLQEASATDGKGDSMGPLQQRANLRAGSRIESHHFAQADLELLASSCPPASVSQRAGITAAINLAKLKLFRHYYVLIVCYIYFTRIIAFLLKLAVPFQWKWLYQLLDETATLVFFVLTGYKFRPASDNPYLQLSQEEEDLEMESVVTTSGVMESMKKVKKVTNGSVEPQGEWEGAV
UniProt P50148, whole entry, looked up: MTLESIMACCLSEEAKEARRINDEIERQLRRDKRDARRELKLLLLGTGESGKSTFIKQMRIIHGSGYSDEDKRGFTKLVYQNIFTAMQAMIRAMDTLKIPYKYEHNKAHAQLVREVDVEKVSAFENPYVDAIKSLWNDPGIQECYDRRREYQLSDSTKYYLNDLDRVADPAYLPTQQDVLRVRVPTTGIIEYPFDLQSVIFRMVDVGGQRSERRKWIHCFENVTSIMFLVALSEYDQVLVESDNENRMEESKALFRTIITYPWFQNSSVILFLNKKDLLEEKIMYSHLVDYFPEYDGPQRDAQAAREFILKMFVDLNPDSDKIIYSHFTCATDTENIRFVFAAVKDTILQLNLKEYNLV

[2] = compound: Cc1nc(Nc2n[nH]c3c2CN(C(=O)N[C@H](CN(C)C)c2ccccc2)C3(C)C)c2sccc2n1
How it was run: as §1

[3] = compound: Cc1nc(Nc2ncc(C(=O)Nc3c(C)cccc3Cl)s2)cc(N2CCN(CCO)CC2)n1 [dasatinib]
How it was run: as §1

[4] = compound: Cc1ncc(-c2ccnc(Nc3ccc(S(C)(=O)=O)cc3)n2)n1C(C)C
How it was run: as §1

[5] = compound: Cn1cc(-c2ccc3c(c2)CCN3C(=O)Cc2cccc(C(F)(F)F)c2)c2c(N)ncnc21
How it was run: as §1

[6] = compound: Cn1cc(CNCC2CCN(c3ncc(C(=O)NO)cn3)CC2)c2ccccc21 [quisinostat]
How it was run: as §1

[7] = compound: Cn1cncc1[C@@](N)(c1ccc(Cl)cc1)c1ccc2c(c1)c(-c1cccc(Cl)c1)cc(=O)n2C [tipifarnib]
How it was run: as §1

[8] = compound: NC(=O)Nc1cc(-c2cccc(F)c2)sc1C(=O)N[C@H]1CCCNC1
How it was run: as §1

[9] = compound: NC(=O)c1cnc(N[C@@H]2CCCC[C@@H]2N)nc1Nc1cccc(-n2nccn2)c1
How it was run: as §1

[10] = compound: NC1(c2ccc(-c3nc4ccn5c(=O)[nH]nc5c4cc3-c3ccccc3)cc2)CCC1
How it was run: as §1

[11] = compound: NCC(=O)Nc1ccc(-n2nc(C(F)(F)F)cc2-c2ccc3c(ccc4ccccc43)c2)cc1
How it was run: as §1

[12] = compound: O=C(CCCCCCC(=O)Nc1ccccc1)NO [vorinostat]
How it was run: as §1

[13] = compound: O=C(O)c1ccc2c(c1)nc(Nc1cccc(Cl)c1)c1ccncc12 [silmitasertib]
How it was run: as §1

[14] = compound: O=C1NC(=O)C(c2cnc3ccccn23)=C1c1cn2c3c(cc(F)cc13)CN(C(=O)N1CCCCC1)CC2
How it was run: as §1

[15] = compound: c1cn2cc(-c3ccc4cn[nH]c4c3)nc(Nc3ccc(N4CCOCC4)cc3)c2n1 [entospletinib]
How it was run: as §1

Measured: log2 fold change

GK (UniProt P32189)
inactive: [1] 0.017 | [2] -0.014 | [3] 0.015 | [4] -0.055 | [5] 0.017 | [6] -0.008 | [7] -0.029 | [8] -0.021 | [9] -0.006 | [10] 0.025 | [11] 0.003 | [12] 0.126 | [13] -0.019 | [14] -0.059 | [15] -0.03

GPHN isoform 2 (UniProt Q9NQX3)
inactive: [1] -0.005 | [2] 0.015 | [3] 0.01 | [4] -0.007 | [5] -0.012 | [6] -0.022 | [7] 0.008 | [8] 0.006 | [9] -0.02 | [10] 0.01 | [11] 0.031 | [12] 0.033 | [13] -0.056 | [14] -0.005 | [15] -0.004

GNPTG (UniProt Q9UJJ9)
inactive: [1] -0.102 | [2] -0.031 | [3] -0.072 | [4] 0.04 | [5] -0.052 | [6] -0.006 | [7] -0.063 | [8] 0.044 | [9] 0.016 | [10] 0.093 | [11] -0.157 | [12] 0.194 | [13] 0.043 | [14] -0.112 | [15] -0.103

GOLGA4 isoform 5 (UniProt Q13439)
inactive: [1] -0.02 | [2] 0.003 | [3] -0.018 | [4] -0.005 | [5] -0.01 | [6] -0.052 | [7] 0.004 | [8] 0.02 | [9] 0.009 | [10] -0.008 | [11] 0.033 | [12] -0.062 | [13] 0.007 | [14] 0.016 | [15] -0.011

GMEB1 (UniProt Q9Y692)
inactive: [1] 0.042 | [2] -0.014 | [3] -0.007 | [4] 0.031 | [5] 0.014 | [6] 0.003 | [7] -0.052 | [8] -0.001 | [9] -0.061 | [10] 0.042 | [11] 0 | [12] -0.035 | [13] 0.029 | [14] -0.042 | [15] -0.006

GLG1 isoform 2 (UniProt Q92896)
inactive: [1] 0.014 | [2] -0.008 | [3] 0.018 | [4] 0.024 | [5] 0.021 | [6] -0.017 | [7] -0.012 | [8] 0.016 | [9] 0.005 | [10] -0.01 | [11] -0.043 | [12] 0.107 | [13] -0.002 | [14] -0.01 | [15] -0.054

GPN1 isoform 5 (UniProt Q9HCN4)
inactive: [1] -0.006 | [2] -0.005 | [3] 0.002 | [4] 0.021 | [5] -0.055 | [6] -0.027 | [7] 0.037 | [8] 0 | [9] -0.015 | [10] -0.005 | [11] -0.025 | [12] 0.11 | [13] -0.033 | [14] 0.03 | [15] 0.066

GIGYF1 (UniProt O75420)
inactive: [1] -0.03 | [2] 0.013 | [3] -0.078 | [4] -0.013 | [5] -0.003 | [6] -0.156 | [7] -0.053 | [8] 0.03 | [9] 0.057 | [10] 0.104 | [11] 0.144 | [12] -0.074 | [13] 0.053 | [14] -0.046 | [15] -0.064

GPR107 isoform 2 (UniProt Q5VW38)
inactive: [1] -0.025 | [2] 0.05 | [3] 0.046 | [4] -0.027 | [5] 0.028 | [6] -0.024 | [7] -0.066 | [8] 0.032 | [9] -0.02 | [10] -0.081 | [11] -0.015 | [12] 0.072 | [13] -0.031 | [14] -0.023 | [15] 0.004

GNAQ (UniProt P50148)
inactive: [1] 0.032 | [2] 0.091 | [3] 0.042 | [4] 0.068 | [5] 0.083 | [6] 0.004 | [7] 0.066 | [8] -0.059 | [9] 0.037 | [10] 0.049 | [11] -0.005 | [12] 0.094 | [13] -0.038 | [14] -0.017 | [15] 0.049

3 neighbouring entries from above, quoted:
GPN1 isoform 5 (UniProt Q9HCN4)
inactive: [1] -0.006 | [2] -0.005 | [3] 0.002 | [4] 0.021 | [5] -0.055 | [6] -0.027 | [7] 0.037 | [8] 0 | [9] -0.015 | [10] -0.005 | [11] -0.025 | [12] 0.11 | [13] -0.033 | [14] 0.03 | [15] 0.066

GIGYF1 (UniProt O75420)
inactive: [1] -0.03 | [2] 0.013 | [3] -0.078 | [4] -0.013 | [5] -0.003 | [6] -0.156 | [7] -0.053 | [8] 0.03 | [9] 0.057 | [10] 0.104 | [11] 0.144 | [12] -0.074 | [13] 0.053 | [14] -0.046 | [15] -0.064

GPR107 isoform 2 (UniProt Q5VW38)
inactive: [1] -0.025 | [2] 0.05 | [3] 0.046 | [4] -0.027 | [5] 0.028 | [6] -0.024 | [7] -0.066 | [8] 0.032 | [9] -0.02 | [10] -0.081 | [11] -0.015 | [12] 0.072 | [13] -0.031 | [14] -0.023 | [15] 0.004

From the supplement of paper PMC10849652
